# In PubChem BioAssay AID1347076 (National Center for Advancing Translational Sciences (NCATS), 2019):
# The whole screen tested about 400,000 compounds, of which about 13,000 (3.2%) were called active. The shares of active, inactive and inconclusive entries below differ from those in the screen. The call rests on the fitted dose curve; in most records, active means well fitted cell-killing curve with a large enough effect; inconclusive means small, poorly fitted or top-dose-only effect, or effect the other way; inactive means flat fitted curve, though single readings scatter. A potency beside an inconclusive call is a rough fit, not a confirmed value.
# Test: qHTS assay for MDR1-selective chemotherapeutics: Primary screen using the drug-selected MDR subline cells KB-V1; further: nearly all actives have a fitted effect of over 60% in size
# Settings: KB-V1 MDR cells viability, CellTiter-Glo, 72 h; activity change, negative = cytotoxicity: at 46.1 µM (top of the series)
# Procedure, shortened: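 KB-V1 cells (P-gp-expressing MDR subline of KB-3-1) in phenol-red-free DMEM with 10% FBS were exposed to library compounds over a concentration series for 72 h at 37 degrees C. Viability read by CellTiter-Glo luminescence; concentration-effect curves fitted after normalization.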
# On the % scale 0 is the no-effect control and ±100 the full control effect; potency means the concentration at half of the fitted maximal effect.
Compound,Potency,"activity change, negative = cytotoxicity"
O=C(c1cccs1)N(Cc1ccc(Cl)cc1)C1CCS(=O)(=O)C1 (stereo unspecified),"inconclusive: 18.4 µM [cytotoxic, partial curve, poor fit]",–
O=C(O)c1ccc(N2CC3CC(C2)c2cccc(=O)n2C3)c(NC(=S)Nc2ccc(Cl)cc2Cl)c1 (stereo unspecified),"inconclusive: 20.6 µM [rising, single point]",–
O=C(NC(=S)Nc1ccc(N2CCN(C(=O)c3ccccc3)CC2)cc1)c1cccs1,"inconclusive: 6.51 µM [cytotoxic, partial curve]",–
CCn1c(SCC(=O)N2CCC(C)CC2)nc2c1c(=O)n(C)c(=O)n2C,"inconclusive: 8.2 µM [cytotoxic, partial curve]",–
COc1ccc(C(=O)NCc2ccc3c(c2)CCN3C(=O)c2cccc(C)c2)cc1OC,–,inactive: -1.06%
CC(C)Cc1nc2sc3c(SCC(N)=O)ncnc3c2c2c1CCC2,–,inactive: -23.6%
COc1ccc(-c2ccc(SCC(=O)NCc3ccc4c(c3)OCO4)nn2)cc1OC,"inconclusive: 7.31 µM [cytotoxic, partial curve, poor fit]",–
Cc1csc(NC(=O)Nc2cccc(Cl)c2)n1,–,inactive: -8.97%
COc1cccc(NC(=O)CN(C)C(=O)c2cn(-c3ccccc3)nc2-c2cccs2)c1,"inconclusive: 14.6 µM [cytotoxic, partial curve]",–
Cc1ccc(Nc2cc(C)nc(-c3ccccc3O)n2)cc1,"inconclusive: 29.1 µM [cytotoxic, single point]",–
CC12CCC(=O)N1C(C(=O)N1CCN(c3ccc(C(F)(F)F)cc3[N+](=O)[O-])CC1)CS2 (stereo unspecified),"inconclusive: 6.51 µM [cytotoxic, partial curve]",–
COc1ccc(N2C(=O)CN=C2Nc2nc(C)cc(C)n2)cc1,–,inconclusive: 6.06%
CC(=O)C1C=CC(C)(C(=O)O)C2C=C(C)C(=O)C(C)(O)C12 (stereo unspecified),–,inactive: 27.8%
CCOc1ccc(/C=C2\SC(N3CCc4ccccc4C3)=NC2=O)cc1,"inconclusive: 29.1 µM [cytotoxic, partial curve, poor fit]",–
O=C(NCc1ccccc1)c1cc(-c2ccco2)on1,"inconclusive: 29.1 µM [cytotoxic, partial curve, poor fit]",–
Cc1nc2cc3ccccc3cc2s1,"inconclusive: 18.4 µM [rising, single point]",–
COc1cccc(NC(=O)/C=C/c2ccccc2[N+](=O)[O-])c1,"inconclusive: 18.4 µM [cytotoxic, single point]",–
O=C(c1oc2ccccc2c1N1CCCCC1)N1CCCCC1,active: 14.6 µM,–
O=C(Nc1ccc(Cl)cc1)C1CCCCN1S(=O)(=O)c1ccccc1 (stereo unspecified),active: 3.66 µM,–
COc1ccccc1NS(=O)(=O)c1cc(NC(=O)CCNC(C)=O)ccc1N1CCCCC1,"inconclusive: 29.1 µM [rising, single point]",–
CN1C(=O)C2(SCC(=O)N2c2ccc(Cl)cc2)c2ccccc21 (stereo unspecified),–,inactive: -5.65%
O=C(Nc1ccc(F)cc1)Nc1nnc([C@H]2C[C@H](O)[C@@H](CO)O2)s1,–,inactive: 3.14%
CCOC(=O)/C(=C/C=C1\Sc2cc(C)c(C)cc2N1CC)C(C)=O,"inconclusive: 29.1 µM [cytotoxic, single point]",–

Compound,Potency,"activity change, negative = cytotoxicity"
Cc1ccccc1OCCCCn1nnc2sc3c(c2c1=O)CCC(C)C3 (stereo unspecified),–,inactive: 11.6%
O=C(C1CCCN(S(=O)(=O)c2ccccc2[N+](=O)[O-])C1)N1CCCC1 (stereo unspecified),active: 11.6 µM,–
CC(Oc1ccc(Br)cc1Br)C(=O)Nc1cccnc1 (stereo unspecified),–,inactive: -11.9%
O=C(O)C1C2CCC(CC2)C1C(=O)N1CCN(Cc2ccc(F)cc2)CC1 (stereo unspecified),–,inactive: 2.26%
CCOc1ccc(NCc2nc3ccccc3n2CCOc2ccc(C)cc2)cc1,"inconclusive: 20.6 µM [cytotoxic, partial curve]",–
COc1cccc(/C=C2\SC(=N)N(c3ccc(F)cc3)C2=O)c1,"inconclusive: 14.6 µM [cytotoxic, partial curve]",–
CCCn1nnnc1NC(=O)c1cc(Br)ccc1OC,–,inconclusive: 33.1%
CC(=O)c1cccc(NC(=O)C2Cc3c(-c4ccccc4Oc4ccccc4)ccnc3O2)c1 (stereo unspecified),"inconclusive: 16.4 µM [cytotoxic, single point]",–
CCOc1ccc(NC(=O)CSc2nc3ccsc3c(=O)n2CCCCCC(=O)O)cc1,inactive,–
Brc1nc(Br)n(Cc2ccccc2)n1,"inconclusive: 0.461 µM [rising, full curve, poor fit]",–
CN(C)S(=O)(=O)N1CCCC(C(=O)c2ccc(C(F)(F)F)cc2)C1 (stereo unspecified),active: 23.1 µM,–
Cc1cccc(C)c1OC(=O)CN1C(=O)c2ccccc2C1=O,"inconclusive: 16.4 µM [rising, single point]",–
CC1CC(=O)Nc2ccccc2N1S(=O)(=O)c1ccccc1 (stereo unspecified),–,inactive: 16.3%
Cc1ccc(-c2c[n+](CC(=O)c3cccs3)c3n2CCC3)cc1,"inconclusive: 23.1 µM [rising, single point]",–
COc1ccccc1NS(=O)(=O)c1ccc(C(=O)N2CCN(c3ccccc3O)CC2)cc1,"inconclusive: 18.4 µM [cytotoxic, single point]",–
Cc1ccc(S(=O)(=O)c2c(C)cc(C)nc2N2CCCC2)cc1,"inconclusive: 2.59 µM [cytotoxic, full curve, poor fit]",–
CCCCONc1ncnc2nonc12,"inconclusive: 4.11 µM [rising, full curve]",–
CC1CC(C)CN(CCCNC(=O)CCC(=O)N2CCOc3ccccc32)C1 (stereo unspecified),–,inactive: 1.02%
Nc1ccccc1C#CCCCCO,"inconclusive: 29.1 µM [rising, single point]",–
CN1CCc2c(C#N)c(N3CCCCC3)nc(NCc3ccccc3)c2C1,"inconclusive: 29.1 µM [cytotoxic, single point]",–
COCCCN1C(=O)C(=O)/C(=C(/O)c2ccc(S(=O)(=O)N3CCCCC3)cc2)C1c1ccc(OC)cc1 (stereo unspecified),"inconclusive: 23.1 µM [rising, single point]",–
Fc1cc(F)c2nc(Nc3nc4c(F)cccc4s3)sc2c1,"inconclusive: 25.9 µM [cytotoxic, single point]",–
Cc1cc(C)n(-c2nc3cc(Cl)ccc3nc2N2CCN(c3ccccc3F)CC2)n1,"inconclusive: 8.2 µM [cytotoxic, partial curve, poor fit]",–

# An excerpt of the results above:
Compound,Potency,"activity change, negative = cytotoxicity"
COc1cccc(/C=C2\SC(=N)N(c3ccc(F)cc3)C2=O)c1,"inconclusive: 14.6 µM [cytotoxic, partial curve]",–
CCCn1nnnc1NC(=O)c1cc(Br)ccc1OC,–,inconclusive: 33.1%
CC(=O)c1cccc(NC(=O)C2Cc3c(-c4ccccc4Oc4ccccc4)ccnc3O2)c1 (stereo unspecified),"inconclusive: 16.4 µM [cytotoxic, single point]",–
